# Values joined by “and” are separate entries in the source; they are usually repeats but may differ in a detail not shown here. Equal values may be shown once. The list shows a part of the results. These are further read-outs of the screen, such as a control signal, another cell line or another target. No call is given for them. For some assays here: Compounds called inactive in the main read-out are mostly missing here. For some assays here: Words in brackets tell the shape of the fitted curve; partial curves, single points and poor fits give uncertain potencies.
# By UniProt entry, the sequences of proteins in these tests, tags left out. Where a name states a change or a piece, a line headed by the entry shows the natural chain unless it says otherwise.
# UniProt P50135: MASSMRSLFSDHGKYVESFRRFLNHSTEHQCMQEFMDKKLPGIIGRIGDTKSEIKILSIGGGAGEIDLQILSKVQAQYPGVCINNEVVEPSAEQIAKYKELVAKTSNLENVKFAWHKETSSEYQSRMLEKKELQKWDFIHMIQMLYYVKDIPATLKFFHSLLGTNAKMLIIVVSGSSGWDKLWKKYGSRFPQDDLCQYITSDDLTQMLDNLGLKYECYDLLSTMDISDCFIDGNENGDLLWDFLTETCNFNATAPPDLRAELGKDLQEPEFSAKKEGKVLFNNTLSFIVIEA
# UniProt P11086: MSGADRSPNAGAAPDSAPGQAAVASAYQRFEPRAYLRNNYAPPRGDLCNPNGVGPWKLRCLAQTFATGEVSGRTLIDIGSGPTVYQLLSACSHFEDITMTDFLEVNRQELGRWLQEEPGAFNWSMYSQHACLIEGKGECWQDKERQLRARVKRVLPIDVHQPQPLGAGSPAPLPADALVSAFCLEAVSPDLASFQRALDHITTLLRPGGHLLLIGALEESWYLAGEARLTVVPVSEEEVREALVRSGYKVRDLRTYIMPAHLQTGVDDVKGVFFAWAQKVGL
# UniProt P21964: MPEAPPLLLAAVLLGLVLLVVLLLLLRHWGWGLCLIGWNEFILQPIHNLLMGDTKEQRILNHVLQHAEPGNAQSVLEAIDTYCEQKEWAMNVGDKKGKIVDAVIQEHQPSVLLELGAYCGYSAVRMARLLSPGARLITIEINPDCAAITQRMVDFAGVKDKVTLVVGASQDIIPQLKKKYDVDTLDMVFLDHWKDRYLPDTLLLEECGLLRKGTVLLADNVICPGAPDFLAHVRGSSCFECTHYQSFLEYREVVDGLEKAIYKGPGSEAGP
# UniProt P40261: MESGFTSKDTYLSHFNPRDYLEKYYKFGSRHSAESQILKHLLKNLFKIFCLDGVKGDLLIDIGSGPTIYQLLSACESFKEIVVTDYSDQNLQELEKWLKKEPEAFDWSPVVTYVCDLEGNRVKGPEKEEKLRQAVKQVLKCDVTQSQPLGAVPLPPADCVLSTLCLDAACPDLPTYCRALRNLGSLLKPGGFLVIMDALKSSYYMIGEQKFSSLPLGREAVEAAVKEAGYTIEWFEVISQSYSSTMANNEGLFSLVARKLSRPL
# Experiments:
# [1] = Validation of Assay for Modulators of Lamin A Splicing (AID 1459); details: Lamin A splicing dual RFP/GFP fluorescence reporter, ratio
# Summary of the method: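 Splicing correction read as GFP (500-530 nm) over DsRed2 (575-640 nm) object intensity after 48 h compound exposure of reporter HeLa S3 clones (600 cells/well, 2% FBS medium); ancitabine and cycloheximide titrations, 0.5% DMSO as vehicle.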
# [2] = qHTS Assay for Lipid Storage Modulators (AID 1519); details: Drosophila S3 cells, BODIPY lipid droplet/cell ratio, laser cytometry, cells loaded with oleic acid
# Summary of the method: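 Cells seeded at 5,000 per well were treated with compounds over a concentration series and loaded with oleic acid (400 uM, as added). Lipid droplet fluorescence (488 nm excitation, 500-530 nm channel) was read by laser-scanning cytometry and normalized to 20 uM Triacsin C.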
# [3] = qHTS Assay for Modulators of Human Peripheral Myelin Protein 22 (PMP22) Expression/Activity (AID 1967); details: Cell-based PMP22 reporter, dual-color luciferase ratio
# Summary of the method: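 Readout is the corrected green/red luminescence ratio after 24 h compound exposure, normalised to untreated cells (0%). Engineered MSC80 mouse Schwann cells express green luciferase from the mouse Pmp22 promoter and red luciferase from EF-alpha as internal control.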
# [4] = molecular target: Histamine N-methyltransferase (Homo sapiens) (UniProt P50135); assay: Confirmatory Screen for Target Class Profiling of Small Molecule Inhibitors of Methyltransferases (AID 1745852); details: MTase-Glo luminescence, SAH detection, recombinant enzyme; measured here: HNMT inhibition potency
# [5] = molecular target: Phenylethanolamine N-methyltransferase (Homo sapiens) (UniProt P11086); assay: as above; details: MTase-Glo luminescence, SAH detection, recombinant enzyme; measured here: PNMT inhibition potency
# [6] = qHTS Validation Assay to Find Inhibitors of Chronic Active B-Cell Receptor Signaling (AID 485345); details: ABC-DLBCL cells, chronic BCR signaling reporter
# Summary of the method: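 TMD8 ABC-DLBCL cells with dox-inducible green luciferase–IκBα fusion and red native luciferase; compounds 46 uM–3 nM, 4 h at 37C with doxycycline in 0.5% FBS IMDM. Green/red ratio normalized to basal and 10 uM MG-132.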
# [7] = Nrf2 qHTS screen for inhibitors: Validation (AID 493153); details: A549 ARE-Fluc reporter, 18-24 h; AC50: CellTiter-Fluor fluorescence read, measured here: cytotoxicity CellTiter-Fluor AC50; viability change: measured here: cytotoxicity max response
# Summary of the method: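 Concentration-response test in A549 ARE_Fluc reporter cells (5% FBS OPTI-MEM), compound exposure 18-24 h at 37°C, 5% CO2. Cell viability measured first by CellTiter-Fluor fluorescence; ARE-driven luciferase luminescence then measured as Nrf2 activity.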
# [8] = A High-Content qHTS Against Drug Library for the Identification of Small Molecules that Inhibit DYT1 Early Onset Primary Dystonia-Associated Cell Pathology (AID 1645839); details: HEK293 Flp-In EGFP-delE TorsinA, punctate imaging, 48 h; measured here: cell count cytotoxicity
# Summary of the method: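 Induced EGFP-delE TorsinA cells are imaged after 48 h of compound treatment. Punctate fusion-protein distribution gives the %pathology value, while nuclei counts flag toxicity. Wild-type EGFP-hTOR1A cells define the normal pattern.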
# [9] = NCATS anti-infectives library activity on the primary C. elegans qHTS viability assay (AID 1745855); details: C. elegans worm area imaging, day 7; measured here: worm number, day 3
# Summary of the method: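 Titration-based screen in worms: eggs hatched overnight in M9, L1 larvae fed TOP10 capsules in S medium with compound, incubated 21 °C for 7 days; fluorescent objects gated by size and intensity at days 0, 3 and 7.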
# [10] = qHTS drug screen for cell cycle checkpoint inhibitors in PARPi-resistant BRCA-mutant ovarian cancer cell lines. (AID 1963452); details: PEO1/OlaR viability, CellTiter-Glo luminescence, 96 h
# Summary of the method: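 PEO1, PEO4 and PEO1/OlaR ovarian cancer cells, 600 per well, exposed 96 h at 37C to a dilution series. Viability read by CellTiter-Glo luminescence, normalized to DMSO and empty wells; activity summarized as Z-AUC.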
# [11] = qHTS for identification of novel therapeutic agents for treatment of microphthalmiaassociated transcription factor (MiT) renal cell carcinoma (RCC) (AID 1963991); details: CellTiter-Glo, 48 h; for z-score: stronger effect = lower value
# Summary of the method: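 Three TFE3-fusion RCC cell lines (UOK109, UOK124, UOK145), 500 cells/well, were exposed to the 1912-compound MIPE 4.0 library for 48 hours at 37 C. Viability was read by CellTiter-Glo luminescence, normalised to DMSO (100%) and empty wells (0%), with 11-concentration curve fits.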
# [12] = qHTS Assay for Inhibitors of PDE-IV (AID 607); details: HEK293 ACTOne CNG channel cells, membrane potential fluorescence; measured here: parental cell counter-screen
# Summary of the method: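 ACTOne HEK293 cells carry a modified cAMP-gated CNG channel and express endogenous PDE4; plated 1000 cells/well, compounds up to 22.9 uM final. Membrane-potential dye fluorescence (ex 535/em 590) was read; parental cells received 10 uM forskolin + 100 uM RO 20-1724.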
# [13] = qHTS assay for small molecule antagonists of peroxisome proliferator-activated receptor delta signaling (AID 588535); details: HEK293T PPARd-UAS-bla, beta-lactamase FRET ratio, 18 h; 460 nm channel;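 further: cells co-treated with a PPAR-delta agonist as stimulator during compound exposure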
# Summary of the method: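 Compounds tested in titration on PPAR-delta-UAS-bla HEK293T cells grown in charcoal/dextran-stripped serum (2%); beta-lactamase activity read via CCF4 emission at 460 and 530 nm.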
# [14] = qHTS assay for small molecule antagonists of peroxisome proliferator-activated receptor gamma signaling (AID 588537); details: HEK293 PPARg-UAS-bla, beta-lactamase ratio, antagonist mode; measured here: W460 blue channel
# Summary of the method: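 HEK293 cells, PPAR-gamma-UAS-bla, 3000/well. Pre-incubation 6-6.5 h, 37 C. Compound titration with rosiglitazone 50 nM final, 16 h. CCF4 dye, 2 h RT, dual-emission fluorescence.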
# [15] = qHTS assay for small molecule agonists of retinoid X receptor alpha signaling (AID 588544); details: HEK293T RXRa-UAS-bla, beta-lactamase reporter, 18 h; 530 nm emission
# [16] = S16 Schwann cell PMP22 intronic element beta-lactamase assay (AID 624044); details: S16 rat Schwann cells, PMP22 element beta-lactamase FRET, 24 h; measured here: 460 nm blue channel
# Summary of the method: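 Beta-lactamase reporter under a PMP22 intronic regulatory element in stable S16 rat Schwann cells; 24 h compound exposure. 460 nm blue signal normalized between DMSO (0%) and potassium clavulanate, with 535 nm FRET tracking viability; curves classed by r2 and response.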
# [17] = molecular target: Catechol O-methyltransferase (Homo sapiens) (UniProt P21964); assay: Confirmatory Screen for Target Class Profiling of Small Molecule Inhibitors of Methyltransferases (AID 1745852); details: MTase-Glo luminescence, SAH detection, recombinant enzyme; measured here: COMT inhibition potency
# [18] = molecular target: Nicotinamide N-methyltransferase (Homo sapiens) (UniProt P40261); assay: as above; details: MTase-Glo luminescence, SAH detection, recombinant enzyme; measured here: NNMT inhibition potency
# [19] = measured here: cell count channel max response
# [20] = measured here: cell number channel AC50
# [21] = measured here: lipid (BODIPY) channel AC50
# [22] = measured here: lipid channel max response
# [23] = measured here: red reporter channel AC50, EF-alpha promoter control reporter in MSC80 mouse Schwann cells
# [24] = measured here: green reporter channel AC50, mouse Pmp22 promoter in mouse Schwann cells
# [25] = measured here: CBG/CBR ratio read-out
# [26] = measured here: CBR control luciferase (viability counter)
# [27] = measured here: PEO1 parental viability
# [28] = TFE3-RCC UOK109 viability, measured here: UOK109 Z-AUC
# [29] = TFE3-RCC viability, measured here: UOK124 Z-AUC
# [30] = TFE3-RCC viability, measured here: UOK145 Z-AUC
# [31] = TFE3-RCC viability, measured here: UOK145 cell viability
smiles,measurement,setting,value
N[C@@H](CC(=O)O)C(=O)O,AC50,[1]; measured here: GFP channel,"35.5 µM [falling, single point]"
same,AC50,[1]; measured here: RFP channel,"35.5 µM [falling, single point]"
NCC(O)C1CCCCCCC1 (stereo not given),AC50,[1]; measured here: GFP channel,"1.58 µM [falling, full curve, poor fit]"
same,AC50,[1]; measured here: RFP channel,"1.58 µM [falling, full curve, poor fit]"
same,max response,[2]; [19],26.3%
same,AC50,[2]; [20],"1.58 µM [falling, full curve]"
same,AC50,[2]; [21],"1.58 µM [falling, full curve]"
same,max response,[2]; [22],27.6%
same,AC50,[3]; [23],"47.8 µM [falling, partial curve]"
same,IC50,[4],"19.3 µM [falling, partial curve]"
same,IC50,[5],"13.7 µM [falling, partial curve]"
CN1CCN(CCCN2c3ccccc3Sc3ccc(C(F)(F)F)cc32)CC1,AC50,[1]; measured here: GFP channel,"35.5 µM [falling, single point]"
same,AC50,[1]; measured here: RFP channel,"35.5 µM [falling, single point]"
same,max response,[2]; [19],-90.5%
same,AC50,[2]; [20],"31.6 µM [falling, partial curve, poor fit]"
same,AC50,[2]; [21],"35.5 µM [falling, partial curve, poor fit]"
same,max response,[2]; [22],-96.6%
same,AC50,[3]; [24],"30.1 µM [falling, full curve]"
same,AC50,[3]; [23],"23.9 µM [falling, full curve]"
same,AC50,[6]; [25],"18.4 µM [falling, single point]"
same,AC50,[6]; [26],"9.2 µM [falling, partial curve]"
same,AC50,[7],"20.6 µM [falling, partial curve, poor fit]"
same,viability change,[7],-27.7%
same,AC50,[8],"7.94 µM [falling, partial curve]"
same,AC50,[9],"25.8 µM [falling, single point]"
same,AC50,[10]; [27],"15.5 µM [falling, single point]"
same,AC50,[10]; measured here: PEO4 viability,"13.8 µM [falling, partial curve]"
same,z-score,[11]; [28],-1.75
same,z-score,[11]; [29],0.0577
same,z-score,[11]; [30],-0.411
same,AC50,[11]; [31],"5.9 µM [falling, full curve]"
O=C(Nc1ccc([N+](=O)[O-])cc1Cl)c1cc(Cl)ccc1O,AC50,[12],"631 nM [rising, full curve] and 1 µM [rising, partial curve]"
same,AC50,[1]; measured here: GFP channel,"1.58 µM [rising, full curve]"
same,AC50,[1]; measured here: RFP channel,"1.58 µM [rising, full curve]"
same,max response,[2]; [19],-49% and -31.2% and 6.82%
same,AC50,[2]; [20],"7.08 µM [falling, full curve, poor fit] and 3.16 µM [falling, single point] and 14.1 µM [falling, partial curve, poor fit]"
same,AC50,[2]; [21],"7.08 µM [falling, full curve] and 35.5 µM [falling, single point] and 7.94 µM [falling, full curve, poor fit]"
same,max response,[2]; [22],-106% and -103% and 11.4%
same,AC50,[3]; [24],"1.9 µM [falling, full curve]"
same,AC50,[3]; [23],"0.379 µM [falling, full curve]"
same,AC50,[6]; [26],"0.366 µM [falling, full curve]"
same,AC50,[7],"2.91 µM [falling, full curve]"
same,viability change,[7],-73.7%
same,max response,[13],-36.8%
same,AC50,[14],"8.91 µM [falling, full curve, poor fit]"
same,max response,[15],11.2%
same,AC50,[16],"1.12 µM [falling, full curve]"
same,AC50,[8],"0.708 µM [falling, full curve, poor fit]"
same,AC50,[10]; [27],"0.347 µM [falling, full curve]"
same,AC50,[10]; measured here: PEO4 viability,"0.389 µM [falling, full curve]"
same,z-score,[11]; [28],-1.16
same,z-score,[11]; [29],-0.589
same,AC50,"[11]; TFE3-RCC viability, measured here: UOK124 cell viability","1.48 µM [falling, full curve]"
same,z-score,[11]; [30],-1.03
same,AC50,[11]; [31],"2.35 µM [falling, full curve]"
Cc1c(C)c2c(c(C)c1O)CCC(C)(CN1CCN(c3cc(N4CCCC4)nc(N4CCCC4)n3)CC1)O2 (stereo not given),AC50,[1]; measured here: GFP channel,"3.55 µM [falling, single point]"
same,AC50,[1]; measured here: RFP channel,"22.4 µM [falling, partial curve]"
same,max response,[2]; [19],-82.1%
same,AC50,[2]; [21],"44.7 µM [falling, partial curve, poor fit]"
same,max response,[2]; [22],-103%
COc1cc2ncnc(Nc3cccc(Cl)c3)c2cc1OC,AC50,[1]; measured here: GFP channel,"0.891 µM [falling, full curve, poor fit]"
same,AC50,[1]; measured here: RFP channel,"12.6 µM [falling, partial curve]"
same,max response,[2]; [19],35.9% and -61.1%
same,AC50,[2]; [20],"1.78 µM [rising, full curve, poor fit] and 31.6 µM [falling, partial curve, poor fit]"
same,AC50,[2]; [21],"1.78 µM [rising, full curve, poor fit]"
same,max response,[2]; [22],50% and -79.3%
same,AC50,[3]; [24],"75.7 µM [falling, single point]"
same,AC50,[3]; [23],"75.7 µM [falling, single point]"
same,AC50,[6]; [25],"11.6 µM [falling, partial curve]"
same,viability change,[7],2.95%
same,IC50,[17],"24.1 µM [falling, partial curve]"
same,IC50,[4],"27.1 µM [falling, partial curve]"
same,IC50,[18],"27.1 µM [falling, partial curve, poor fit]"
same,IC50,[5],"24.1 µM [falling, partial curve]"
same,AC50,[10]; [27],"13.8 µM [falling, partial curve, poor fit]"
same,AC50,[10]; measured here: PEO4 viability,"13.8 µM [falling, partial curve, poor fit]"
same,z-score,[11]; [28],-2.73
same,z-score,[11]; [29],-0.162
same,z-score,[11]; [30],0.479
same,AC50,[11]; [31],"26.4 µM [falling, single point]"

# Pulled one by one from above (two):
smiles,measurement,setting,value
COc1cc2ncnc(Nc3cccc(Cl)c3)c2cc1OC,AC50,[3]; [23],"75.7 µM [falling, single point]"
same,AC50,[6]; [25],"11.6 µM [falling, partial curve]"

# Reprinted from the entries so far (two entries):
smiles,measurement,setting,value
NCC(O)C1CCCCCCC1 (stereo not given),AC50,[2]; [21],"1.58 µM [falling, full curve]"
same,max response,[2]; [22],27.6%

# Reference: PubChem BioAssay (NCATS)
